These are yes or no findings as the source states them, for the method shown. For some assays here: In cells and extracts the contact can be indirect. Some results given as binding are weak or reduced against the parent protein; the word gives no strength.
How the values were obtained:
[1] = biological target: KDM5B (mouse (endogenous in BMDMs and BMDCs)) (UniProt Q80Y84); assay: co-IP; endogenous proteins; extracts of BMDMs and BMDCs treated with LPS for the indicated time points; immunoblot with the indicated antibodies
[2] = biological target: KDM5B (mouse (endogenous in BMDMs and BMDCs)) (UniProt Q80Y84); assay: sequential ChIP (re-ChIP); fixed BMDMs after LPS stimulation for 2 h; first-round ChIP against USP38, KDM5B or IgG, eluted samples re-ChIPed with the second antibodies; PCR of the Il6 promoter

Sequences of proteins named here, by UniProt entry; tags and fusion partners are left off.
UniProt Q80Y84: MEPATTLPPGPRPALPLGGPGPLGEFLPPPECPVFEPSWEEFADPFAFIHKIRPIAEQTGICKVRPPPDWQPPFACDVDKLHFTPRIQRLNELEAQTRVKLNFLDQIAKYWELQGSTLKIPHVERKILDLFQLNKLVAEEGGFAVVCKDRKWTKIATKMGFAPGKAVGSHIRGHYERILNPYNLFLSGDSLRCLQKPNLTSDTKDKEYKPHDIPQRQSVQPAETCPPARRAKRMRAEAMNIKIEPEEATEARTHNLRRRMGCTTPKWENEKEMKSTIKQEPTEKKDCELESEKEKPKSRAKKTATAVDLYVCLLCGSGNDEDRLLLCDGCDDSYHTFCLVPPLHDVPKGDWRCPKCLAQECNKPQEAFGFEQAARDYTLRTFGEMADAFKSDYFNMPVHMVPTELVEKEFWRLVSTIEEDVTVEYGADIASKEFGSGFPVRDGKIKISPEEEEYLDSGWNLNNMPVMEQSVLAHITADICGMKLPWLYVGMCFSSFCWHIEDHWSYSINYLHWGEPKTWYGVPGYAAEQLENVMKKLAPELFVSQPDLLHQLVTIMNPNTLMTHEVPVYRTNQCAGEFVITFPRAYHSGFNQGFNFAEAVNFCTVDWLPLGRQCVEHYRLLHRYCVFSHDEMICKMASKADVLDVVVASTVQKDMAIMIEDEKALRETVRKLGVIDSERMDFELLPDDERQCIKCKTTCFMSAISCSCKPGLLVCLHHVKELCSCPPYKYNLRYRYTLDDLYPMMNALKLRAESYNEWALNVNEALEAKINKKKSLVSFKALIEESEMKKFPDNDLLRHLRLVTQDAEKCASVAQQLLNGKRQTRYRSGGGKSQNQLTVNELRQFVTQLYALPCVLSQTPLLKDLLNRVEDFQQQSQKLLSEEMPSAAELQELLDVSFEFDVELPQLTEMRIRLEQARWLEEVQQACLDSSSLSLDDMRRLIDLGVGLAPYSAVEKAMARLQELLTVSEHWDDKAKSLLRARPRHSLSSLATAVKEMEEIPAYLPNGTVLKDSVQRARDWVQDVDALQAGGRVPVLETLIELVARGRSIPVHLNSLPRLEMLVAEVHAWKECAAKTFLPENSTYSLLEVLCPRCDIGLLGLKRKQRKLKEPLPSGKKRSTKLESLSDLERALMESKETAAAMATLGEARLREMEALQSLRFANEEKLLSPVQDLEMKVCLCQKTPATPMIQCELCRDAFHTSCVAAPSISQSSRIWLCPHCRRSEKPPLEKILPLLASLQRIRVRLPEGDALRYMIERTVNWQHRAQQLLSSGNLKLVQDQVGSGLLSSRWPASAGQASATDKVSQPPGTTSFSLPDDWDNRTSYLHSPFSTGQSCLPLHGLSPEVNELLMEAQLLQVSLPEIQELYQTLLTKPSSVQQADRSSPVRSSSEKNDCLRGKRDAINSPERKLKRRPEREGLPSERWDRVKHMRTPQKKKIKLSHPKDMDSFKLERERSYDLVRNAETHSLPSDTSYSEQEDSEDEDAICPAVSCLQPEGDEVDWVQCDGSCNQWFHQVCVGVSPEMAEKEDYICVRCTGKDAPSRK

- binding [1]: binds
- binding [2]: binds
B1: USP38 (enzyme, UniProt Q8BW70 1-1042)
chain: MDKILEGLVSSSHPLPLKRMIVRKVVEFAEHWLDEAQCEAMFDLTTRLILEGQDPFQRQVGHQVLEAYARYHRPEFESFFNKTFVLGLLQQGYHSVDRKDVAILDYIHNGLKLIMSCPSVLDLFSLLQVEVLRMVCERPEPVLCARLSDLLTDFVQCVPKGKLSVTFCQQLVRTIGHFQCVSTQEKELREYVSQVTKVSTLLQNIWKAEPSTLLPSLQEVFASISSTDASFEPSVALASLVQHIPLQMITVLIRSLTTDPNVKDASMTQALCRMIDWLSWPLAQHVDTWVIALLKGLAAVQKFTILIDVTLLKIELVFNRLWFPLVRPGALAVLSHMLLSFQHSPEAFHVIVPHIVNLVHSFRSDGLPSSTAFLVQLTELVHCMMYHYSGFPDLYEPILEAVKDFPKPSEEKIKLILNQSAWTSQSNALASCLSRLSGKSETGKTGLINLGNTCYMNSVLQALFMATEFRRQVLSLNLNGCNSLMKKLQHLFAFLAHTQREAYAPRIFFEASRPPWFTPRSQQDCSEYLRFLLDRLHEEEKILRVQSSHKPSEGLDCAETCLQEVTSKVAVPTESPGTGDSEKTLIEKMFGGKLRTHICCLNCGSTSHKVEAFTDLSLAFCPSPSVEDLSFQDTASLPSAQDDGLMQTSVADPEEEPVVYNPATAAFVCDSVVNQRVLGSPPVEFHCAESSSVPEESAKILISKDVPQNPGGESTTSVTDLLNYFLAPEVLTGENQYYCESCASLQNAEKTMQITEEPEYLILTLLRFSYDQKYHVRRKILDNVSLPLVLELPVKRTASFSSLSQSWSVDVDFTDINENLPKKLKPSGTEEAFCPKLVPYLLSSVVVHSGVSSESGHYYSYARNITGTESSYQMCPQSESLALAPSQSCLLGVESPNTVIEQDLENKEMSQEWFLFNDSRVTFTSFQSVQKITSRFPKDTAYVLLYKKQSRANGIDSDNPASGVWANGDPPLQKELMDAITKDNKLYLQEQELNARARALQAASASCSFRPNGFDDNDPPGSCGPTGGGGGGGFNTVGRLVF
